Data on three compounds can be found in publication PMC8398451, “Molecular Engineering of Curcumin, an Active Constituent of Curcuma longa L. (Turmeric) of the Family Zingiberaceae with Improved Antiproliferative Activity” (Plants, 2021).

The subject of the data set is 60 NCI cancer cell lines. Description: NCI antiproliferative assay, summary over all lines. The class given is cell-based. The note with it: one dose 10 µM; for Number of cell lines with better inhibition than curcumin: of the 56 cell lines in common.

For the compound `COc1ccc(/C=C/c2cc(/C=C/c3ccc(OC)c(O)c3)n(-c3cccc(Cl)c3)c(=S)n2)cc1O` [3a], the “Number of cell lines with <50% GIs” value is listed as 56 cell lines.

Consider `COc1ccc(NC(=O)n2nc(/C=C/c3ccc(O)c(OC)c3)cc2/C=C/c2ccc(O)c(OC)c2)cc1` [3b], for which the “Number of cell lines with better inhibition than curcumin” value came out at 35 cell lines, the “Number of cell lines with % GIs of ≥68% (active)” value is 32 cell lines, the “Number of cell lines with <50% GIs” value is 9 cell lines and the “Number of cell lines with >50% GIs (and <68% GIs)” value is 13 cell lines.

With `COc1cc(/C=C/c2cc(/C=C/c3ccc(O)c(OC)c3)n(C(=O)Nc3ccc(C(F)(F)F)cc3)n2)ccc1O` [3c], the “Number of cell lines with better inhibition than curcumin” value came to 27 cell lines, the “Number of cell lines with % GIs of ≥68% (active)” value amounted to 25 cell lines, the “Number of cell lines with <50% GIs” value worked out at 17 cell lines and the “Number of cell lines with >50% GIs (and <68% GIs)” value is on record as 12 cell lines.
